This passage reports binding results from paper PMC3720591.

Assay [1] addresses T1, Flag-tagged p45 (mouse) (UniProt Q8CJ26).
T1 sequence: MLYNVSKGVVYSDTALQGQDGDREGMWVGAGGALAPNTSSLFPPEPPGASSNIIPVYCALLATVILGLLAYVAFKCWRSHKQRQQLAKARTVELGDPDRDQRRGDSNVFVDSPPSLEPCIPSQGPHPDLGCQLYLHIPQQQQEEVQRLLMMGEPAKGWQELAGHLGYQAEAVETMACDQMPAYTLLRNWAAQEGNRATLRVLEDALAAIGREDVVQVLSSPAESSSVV
Nature of the assay: co-IP; HEK293 cells with Flag-p45 and V5-tagged FADD constructs; lysis in RIPA buffer (150 mM NaCl, 1% NP-40, 0.5% DOC, 0.1% SDS, 50 mM Tris pH 8.0); immunoprecipitated with anti-Flag M2, blotted with anti-V5.

Assay [2] has as its target T2, p45 of Thy1-p45 transgenic mice (full-length mouse p45 with an N-terminal Flag tag) (mouse) (UniProt Q8CJ26).
T2 sequence: T1 sequence
As to the kind of experiment: co-IP; brain protein extracts of Thy1-p45 transgenic mice; immunoprecipitated with anti-p45 or anti-FADD, blotted with anti-FADD or anti-p45, respectively.

Assay [3] addresses T2, p45 of Thy1-p45 transgenic mice (full-length mouse p45 with an N-terminal Flag tag) (mouse). As to the kind of experiment: co-IP; data not shown; spinal cord extracts, otherwise as for the brain extracts.
Assay [4] deals with T3, human Fas in MCF7-hFAS cells (human), P25445.
T3 chain: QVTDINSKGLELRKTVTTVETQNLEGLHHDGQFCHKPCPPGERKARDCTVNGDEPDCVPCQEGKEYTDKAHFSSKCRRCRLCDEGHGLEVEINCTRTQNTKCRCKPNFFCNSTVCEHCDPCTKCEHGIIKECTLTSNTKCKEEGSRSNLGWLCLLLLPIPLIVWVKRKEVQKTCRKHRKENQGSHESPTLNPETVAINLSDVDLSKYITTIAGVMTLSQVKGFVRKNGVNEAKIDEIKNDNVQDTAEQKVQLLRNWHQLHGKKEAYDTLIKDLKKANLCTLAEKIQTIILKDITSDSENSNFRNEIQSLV
As to the kind of experiment: co-IP; MCF7-hFAS-CTL and MCF7-hFAS-p45 cells treated with FasL (10 ng/ml) for 0 or 30 min; lysates immunoprecipitated with anti-Fas, blotted with anti-caspase-8. The note with it: remark: other sources report otherwise.

These are yes or no findings as the source states them, for the method shown. In cells and extracts the contact can be indirect. Some results given as binding are weak or reduced against the parent protein; the word gives no strength. For some of these results: Sequences can lack the tags named with a protein.

B1: V5-tagged full length FADD (mouse, WT) (protein, UniProt Q61160 1-205)
chain: MDPFLVLLHSLSGSLSGNDLMELKFLCRERVSKRKLERVQSGLDLFTVLLEQNDLERGHTGLLRELLASLRRHDLLQRLDDFEAGTATAAPPGEADLQVAFDIVCDNVGRDWKRLARELKVSEAKMDGIEEKYPRSLSERVRESLKVWKNAEKKNASVAGLVKALRTCRLNLVADLVEEAQESVSKSENMSPVLRDSTVSSSETP
Take B1: the binding result in assay [1] is given as “binds”.

B2: FADD in mouse brain and spinal cord extracts (protein, UniProt Q61160 1-205)
chain: B1 chain
In the case of B2, the binding entry in assay [2] and in assay [3] was “binds” in each case.

B3: caspase-8 in MCF7-hFAS cells, Q14790 1-479 (enzyme)
chain: MDFSRNLYDIGEQLDSEDLASLKFLSLDYIPQRKQEPIKDALMLFQRLQEKRMLEESNLSFLKELLFRINRLDLLITYLNTRKEEMERELQTPGRAQISAYRVMLYQISEEVSRSELRSFKFLLQEEISKCKLDDDMNLLDIFIEMEKRVILGEGKLDILKRVCAQINKSLLKIINDYEEFSKERSSSLEGSPDEFSNGEELCGVMTISDSPREQDSESQTLDKVYQMKSKPRGYCLIINNHNFAKAREKVPKLHSIRDRNGTHLDAGALTTTFEELHFEIKPHDDCTVEQIYEILKIYQLMDHSNMDCFICCILSHGDKGIIYGTDGQEAPIYELTSQFTGLKCPSLAGKPKVFFIQACQGDNYQKGIPVETDSEEQPYLEMDLSSPQTRYIPDEADFLLGMATVNNCVSYRNPAEGTWYIQSLCQSLRERCPRGDDILTILTEVNYEVSNKDDKKNMGKQMPQPTFTLRKKLVFPSD
Turning to B3, the binding result in assay [4] is on record as “binds”.
